The exact form of at least one protein or probe is not confirmed. For some assays here: A weaker result is weaker than the reference pair of the same experiment. For some assays here: At least one verdict rests on a figure or table, not on a statement of the authors. For some assays here: Where a protein sequence is shown, tags need not be part of it.
Experiments:
[1] = target: T1, SOX18 full length (mouse) (UniProt P43680); test: fluorescence polarization; details: 2 mM Mg2+, lower mP than IR5; FP: 30 mM HEPES pH 7.5, 100 mM KCl, 40 mM NaCl, 10 mM ammonium acetate, 10 mM guanidinium HCl, 2 mM MgCl2, 0.5 mM EDTA, 0.01% NP-40, room temp, 5 nM DNA, 5-150 nM protein; recombinant protein; protein details: N-terminal HIS-GST; label: 5'-fluorescein
T1 sequence (looked up, limits assumed): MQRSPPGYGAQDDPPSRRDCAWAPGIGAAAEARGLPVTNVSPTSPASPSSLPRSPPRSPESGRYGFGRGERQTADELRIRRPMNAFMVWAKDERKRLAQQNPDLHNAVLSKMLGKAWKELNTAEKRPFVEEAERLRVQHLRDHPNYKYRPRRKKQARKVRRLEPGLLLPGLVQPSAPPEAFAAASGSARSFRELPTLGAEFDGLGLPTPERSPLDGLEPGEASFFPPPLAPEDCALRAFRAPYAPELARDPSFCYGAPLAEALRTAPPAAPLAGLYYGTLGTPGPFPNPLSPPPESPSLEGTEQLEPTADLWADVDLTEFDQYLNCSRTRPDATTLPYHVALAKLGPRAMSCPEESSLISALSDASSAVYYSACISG

SOX18DIM/SOX7 swap = test: AlphaScreen; details: dose-dependent signal with IR5, monomers co-bind; protein translated in vitro

Row | Sequence | binding result [1] | binding result (SOX18DIM/SOX7 swap)
1 | CGCCAGTAACAATAGGGCGGCTTATTGTTCCGGGGGC (double strand) [IR10 (FP)] | binds more weakly | –
2 | CGCCAGTAGGAACAATGCGGCATTGTTTTCCGGGGGC (double strand) [IR5 (AlphaScreen)] | – | binds

Reference: article PMC6265484, “Homodimerization regulates an endothelial specific signature of the SOX18 transcription factor” (Nucleic Acids Research, 2018)
